# Literature values, collected in patent publication US11027028B2, “Manganese complexes with substituted bisphosphonates useful as imaging and therapeutic agents” (DUKE UNIVERSITY, priority 2015, dated 2021).
# Some results were stated once for a whole list of compounds, not compound by compound.
# Conditions: Mn(II) chelation; cited from earlier work
smiles,measurement,value
"O=C(O)CN(CC(=O)O)CC(=O)O [NTA, nitrilotriacetic acid]",log K1,> 7
